This is one part of the list.

The assay addresses T1, OsSMF1 (Oryza sativa, UniProt Q6ZLB0 1-436).
T1 sequence: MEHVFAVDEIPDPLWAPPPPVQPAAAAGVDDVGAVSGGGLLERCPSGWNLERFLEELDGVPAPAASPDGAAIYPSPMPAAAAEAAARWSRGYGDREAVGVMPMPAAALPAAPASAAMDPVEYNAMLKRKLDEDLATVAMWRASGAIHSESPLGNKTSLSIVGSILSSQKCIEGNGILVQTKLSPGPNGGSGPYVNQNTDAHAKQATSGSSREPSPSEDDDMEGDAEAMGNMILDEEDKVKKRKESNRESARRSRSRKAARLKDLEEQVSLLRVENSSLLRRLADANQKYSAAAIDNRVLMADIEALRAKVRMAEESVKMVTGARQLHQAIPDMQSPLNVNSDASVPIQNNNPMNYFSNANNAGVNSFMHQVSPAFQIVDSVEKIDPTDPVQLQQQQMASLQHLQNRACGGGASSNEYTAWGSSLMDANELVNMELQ
In words: protein-binding microarray (RPBM); PBS, 2% BSA, 51.3 ng/ul salmon testes DNA, 50 uM zinc acetate, 200 nM TF, 25 C, 1 h; high values mean tight binding. Conditions: protein: recombinant; tags: N-terminal polyhistidine and DsRed monomer fusion (pET32a); chain copies: 2; label: CyDye5-dUTP incorporated in the synthesized complementary strand; 3' TTTTT single-stranded linker to array surface; dsDNA, one strand shown. The procedure, abridged: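 Per-feature fluorescence intensity (arbitrary units), read on an Axon 4000B scanner, is the binding signal. Transcription factors carrying an N-terminal polyhistidine tag and DsRed fusion were expressed in E. coli BL21-CodonPlus and purified on Ni–NTA. A custom Agilent array, made double-stranded by primer extension with Cy5-dUTP and blocked with 2% BSA, was incubated with 200 nM protein in PBS, 2% BSA, salmon testes DNA and 50 µM zinc acetate at 25 °C for 1 h and then washed.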
For the sequence “GCCGATTGCAATTTCGTCATCACTGCGGTTAGGATTACACCGGAGTCACCTAGTGCAG”, the binding signal is 4340 fluorescence intensity (a.u.).

Take “ATTGTGTTATATGACTTGGCACATCTTTCTTATTTTGAATCGGAGTCACCTAGTGCAG”: the binding signal was 6740 fluorescence intensity (a.u.).

With “ACCCAGCTGATACCGTACGTACACTTGTGGTCAATGATCACGGAGTCACCTAGTGCAG”, the binding signal is 3650 fluorescence intensity (a.u.).

Consider “GCAACTTCCGTCCATCCGCAACTACTGTATACGTGTATACCGGAGTCACCTAGTGCAG”, for which the binding signal is 8870 fluorescence intensity (a.u.).

Take “TCTAAACTGGTTTATTATCACCCGTCACGGATAACTATTACGGAGTCACCTAGTGCAG”: the binding signal was 3480 fluorescence intensity (a.u.).

On to “CGCCCGCAACCACCCGTCCGCATCCGTCGCCTCACGCCTTCGGAGTCACCTAGTGCAG”, for which the binding signal is 3830 fluorescence intensity (a.u.).

As to “TTTATCTCTACTTTCCAACTCATCTCCTCCGTTTTCCGCGCGGAGTCACCTAGTGCAG”, the binding signal is 5260 fluorescence intensity (a.u.).

On to “CAGTATAAATACCGAGGTGTGGTGACGCTTACTTCTCCACCGGAGTCACCTAGTGCAG”, for which the binding signal is 3950 fluorescence intensity (a.u.).

Take “TCCGGTTAACGGGTGTCGTGGCTGGTGTGTTCGCGTGGGACGGAGTCACCTAGTGCAG”: the binding signal was 3210 fluorescence intensity (a.u.).

Take “CTCAAGACACTGTTGTAACAGTGCCTTTCTGCTGTTACAGCGGAGTCACCTAGTGCAG”: the binding signal is 16600 fluorescence intensity (a.u.).

In the case of “ATTTGTAGTCTTTATGCATTTAAGACTTAAATAAATAGATCGGAGTCACCTAGTGCAG”, the binding signal was 3240 fluorescence intensity (a.u.).

With “TCTCTCTCTATCGCTCGCGGTTGCTCAGGCAAGCTGAGAGCGGAGTCACCTAGTGCAG”, the binding signal is 22500 fluorescence intensity (a.u.).

Take “GTCGAGACAAACGGCACTGCCAGTAGGATTCGTTTCACATCGGAGTCACCTAGTGCAG”: the binding signal is 4000 fluorescence intensity (a.u.).

As to “TTCGGGCCCCTGAATTGTTAGGTAATAACCCTACATCCTGCGGAGTCACCTAGTGCAG”, the binding signal was 13000 fluorescence intensity (a.u.).

Consider “GAGAAACCGTAGGGGACTAACCGTGCTTATCTCTGAAGTCCGGAGTCACCTAGTGCAG”, for which the binding signal was 15000 fluorescence intensity (a.u.).

Take “GACGTTCAGCCCCAACATGTCAGCTCGGAGATTTCTCTCCCGGAGTCACCTAGTGCAG”: the binding signal is 3160 fluorescence intensity (a.u.).

Regarding “GAAAATCGATTCGTTGGTGTCATAACGTGTCTATCGGTGTCGGAGTCACCTAGTGCAG”, the binding signal is 5590 fluorescence intensity (a.u.).

“ATAACCGTTTAGTCGACATGATGTAGGACATAAGGTGGACCGGAGTCACCTAGTGCAG”: the binding signal is 3280 fluorescence intensity (a.u.).

For “CCCCATCGCGCAGCCACGTCTGCCTGGCACCGTCCCCATCCGGAGTCACCTAGTGCAG”, the binding signal is 7900 fluorescence intensity (a.u.).

On to “GTTGGTCCTCCTGACTCTGACTCTGGATGCCACTACCTGCCGGAGTCACCTAGTGCAG”, for which the binding signal is 4210 fluorescence intensity (a.u.).

“CGTCCGCCACGAAAGCCCTTCTTTCTCCACTCTACCGCGGCGGAGTCACCTAGTGCAG”: the binding signal was 3290 fluorescence intensity (a.u.).

Take “CGTCCCCGCCGTTGATCCCGGCAAGGCACACGCAAGACACCGGAGTCACCTAGTGCAG”: the binding signal was 3640 fluorescence intensity (a.u.).

Regarding “AGCTGAGTTACCAAATTATTACTTGATTTCTCTGTTGGAACGGAGTCACCTAGTGCAG”, the binding signal is 3240 fluorescence intensity (a.u.).

On to “AACGAGCCACGCAATCAGTATACTAGCTACCCCGTCCACACGGAGTCACCTAGTGCAG”, for which the binding signal was 3880 fluorescence intensity (a.u.).

As for “GGACTTGGAGCTCAGGCTCTAGACAACCACGCGATCAAATCGGAGTCACCTAGTGCAG”, the binding signal is 18300 fluorescence intensity (a.u.).

As to “TGACGAACACGGAAAGCAACCACGTGGCGACGAACACGGCCGGAGTCACCTAGTGCAG”, the binding signal was 6240 fluorescence intensity (a.u.).

In the case of “TCCCAAAGTAATATCTGGTTCCAATATTGTGTCAGCCATTCGGAGTCACCTAGTGCAG”, the binding signal was 3140 fluorescence intensity (a.u.).

In the case of “CTATATTTGCACTATAACGTTATATTTAATATATTTCCACCGGAGTCACCTAGTGCAG”, the binding signal is 3210 fluorescence intensity (a.u.).

In the case of “CCACGGGCCGTGCTTGGGCCGGCGGCTCGGCACGTGGGTCCGGAGTCACCTAGTGCAG”, the binding signal was 3210 fluorescence intensity (a.u.).

Consider “AGGTTTAACACTACCAATTAGGGTTTCGAACCAAACATATCGGAGTCACCTAGTGCAG”, for which the binding signal was 3530 fluorescence intensity (a.u.).

Take “TCGGCCACCCAACAAGTGGGCCCACCTGTCAGTGACTGTGCGGAGTCACCTAGTGCAG”: the binding signal was 4090 fluorescence intensity (a.u.).

Take “TTTTGATTAGAACTGTATGTCCAGCTTGTGATGTACCTAACGGAGTCACCTAGTGCAG”: the binding signal was 10200 fluorescence intensity (a.u.).

On to “TTTTATTTCTACTGCCACGTAGGTGCCACGTCAACGCCACCGGAGTCACCTAGTGCAG”, for which the binding signal is 49800 fluorescence intensity (a.u.).

Take “CCGGCGCGGCCGTCGCGCGGGGAGTGCGGTGGCGTTTCCACGGAGTCACCTAGTGCAG”: the binding signal is 3190 fluorescence intensity (a.u.).

With “AATGAGATACTTAGACTTGTGAGGCCCGACGTGTCCAATCCGGAGTCACCTAGTGCAG”, the binding signal was 4470 fluorescence intensity (a.u.).

Turning to “CTTGCATATGCGCCTATAAGTACGCGTGGCAGCCTCGATCCGGAGTCACCTAGTGCAG”, the binding signal is 6180 fluorescence intensity (a.u.).

For “AAGGTTTTGTACGTAACCCTTTACAATTTCTAAAATTAGTCGGAGTCACCTAGTGCAG”, the binding signal is 21500 fluorescence intensity (a.u.).

Consider “GTTCTAACTGAAACGATGATGACTGAGCAGTAGCAGACTACGGAGTCACCTAGTGCAG”, for which the binding signal was 4430 fluorescence intensity (a.u.).

As for “CAAATATTTAGTCCCTGTTTCCCTGTCATTGCCTTCGACTCGGAGTCACCTAGTGCAG”, the binding signal was 3400 fluorescence intensity (a.u.).

Take “GTATCATTGGTTTTCATTTGTTTGGTGTGTCAGAGGCATACGGAGTCACCTAGTGCAG”: the binding signal is 4520 fluorescence intensity (a.u.).

“AGTATAACCACCGGGCCCCACGCGTCATCCTCCCGCGCGTCGGAGTCACCTAGTGCAG”: the binding signal was 5930 fluorescence intensity (a.u.).

Take “CATGGTGTCGTGCAAACCCTGTGTGCTCGGTCATGATACTCGGAGTCACCTAGTGCAG”: the binding signal is 3180 fluorescence intensity (a.u.).

(Values after paper PMC7819943, “Rice protein-binding microarrays: a tool to detect cis-acting elements near promoter regions in rice”.)
